# Assay results published in PubChem BioAssay AID743255 (National Center for Advancing Translational Sciences (NCATS), 2014).
# By UniProt entry, the sequences of proteins in these tests, tags left out. Where a name states a change or a piece, a line headed by the entry shows the natural chain unless it says otherwise.
# UniProt O94782: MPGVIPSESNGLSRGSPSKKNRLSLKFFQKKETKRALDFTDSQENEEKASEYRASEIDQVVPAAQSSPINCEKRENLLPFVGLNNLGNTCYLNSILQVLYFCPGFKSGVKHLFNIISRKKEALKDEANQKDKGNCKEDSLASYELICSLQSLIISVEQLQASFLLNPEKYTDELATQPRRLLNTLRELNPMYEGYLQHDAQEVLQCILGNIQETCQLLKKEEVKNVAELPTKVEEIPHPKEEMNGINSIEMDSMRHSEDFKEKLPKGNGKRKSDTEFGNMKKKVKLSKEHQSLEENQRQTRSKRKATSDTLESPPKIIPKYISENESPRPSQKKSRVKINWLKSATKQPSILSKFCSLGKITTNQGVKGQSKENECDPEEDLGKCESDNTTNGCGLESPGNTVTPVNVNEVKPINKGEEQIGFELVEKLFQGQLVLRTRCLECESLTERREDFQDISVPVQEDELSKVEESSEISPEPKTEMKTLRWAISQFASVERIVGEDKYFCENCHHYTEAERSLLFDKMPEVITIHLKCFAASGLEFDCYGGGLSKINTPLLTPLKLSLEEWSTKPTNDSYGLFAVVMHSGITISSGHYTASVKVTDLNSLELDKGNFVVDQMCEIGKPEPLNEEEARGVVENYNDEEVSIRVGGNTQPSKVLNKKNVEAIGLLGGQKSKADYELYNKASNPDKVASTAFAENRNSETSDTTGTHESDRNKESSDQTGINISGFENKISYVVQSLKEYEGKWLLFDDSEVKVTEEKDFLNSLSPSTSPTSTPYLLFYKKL
# Out of some 390,000 compounds screened, about 910 (0.23%) were called active. The shares of active, inactive and inconclusive entries below differ from those in the screen. The call rests on the fitted dose curve; in most records, active means well fitted inhibition curve with a large enough effect; inconclusive means small, poorly fitted or top-dose-only effect; inactive means no such curve, though single readings can be large or run the other way. Where the call is inconclusive, the potency comes from a doubtful curve fit.
# Target: Ubiquitin carboxyl-terminal hydrolase 1 (Homo sapiens) (UniProt O94782)
# Test: Inhibitors of USP1/UAF1: Primary Screen; further: nearly all actives have a fitted effect of over 60% in size
# Conditions: recombinant USP1/UAF1, Ub-Rhodamine cleavage fluorescence; series mostly up to 57.1 µM
# Summary of the method: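 Step one: compound is pinned into 1nM USP1/UAF1 in HEPES pH 7.8 buffer with TCEP. Step two: 15 min room-temperature incubation. Step three: Ub-Rho (150nM final) starts cleavage, tracked by fluorescence over six one-minute reads.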
# Potency means the concentration at half of the fitted maximal effect.
row,SMILES,Potency
1,CCc1ccc(/C=C/C(=O)c2cc(Br)ccc(=O)c2O)cc1,"inconclusive: 25.1 µM [inhibitor, partial curve]"
2,CCN1C(=NCCCCO)N[C@@H](c2cccc(C(F)(F)F)c2)C(C(=O)OC)=C1C,"inconclusive: 0.282 µM [inhibitor, full curve, poor fit]"
3,COc1ccc(NC(=O)c2c([N+](=O)[O-])c(C(C)(C)C)nn2C)cc1,inactive
4,CCCS(=O)(=O)c1ncc(Cl)c(C(=O)Nc2scc(-c3ccccc3)c2C(=O)OCC)n1,"inconclusive: 44.7 µM [inhibitor, partial curve]"
5,COc1ccccc1CN1CCNC(=O)C1CC(=O)NCCCN1CCOCC1 (configuration not stated),"inconclusive: 0.251 µM [inhibitor, full curve, poor fit]"
6,N/C(=N\S(=O)(=O)c1cc(C(F)(F)F)cc(C(F)(F)F)c1)c1ccc(Cl)cc1,inactive
7,Cc1cc(C)cc(N(C(=O)c2csnn2)C(C(=O)NC(C)(C)C)c2ccccn2)c1 (configuration not stated),inactive
8,COc1cccc2c1cc1c(=O)n(CC(=O)N3CCN(c4cc(Cl)ccc4C)CC3)nc(C)n12,"inconclusive: 3.55 µM [inhibitor, partial curve]"
9,CCC(Oc1ccccc1)C(=O)Nc1nnc(S(=O)(=O)N2CCCC2)s1 (configuration not stated),"inconclusive: 39.8 µM [inhibitor, partial curve]"
10,O=C1[C@@H]2C(c3cccnc3)=NO[C@@H]2C(=O)N1c1ccc(Br)cc1,"inconclusive: 50.1 µM [inhibitor, partial curve, poor fit]"
11,CC(C)(C)c1ccc(OCCNC(=S)Nc2ccccc2)cc1,inactive
12,COc1ccc(-n2ncc3c2CC(C)(C)CC3NC(=O)CCCN2CCCC2=O)cc1 (configuration not stated),"inconclusive: 7.94 µM [inhibitor, full curve, poor fit]"
13,CCCCN(C)c1nc(-c2ccco2)c2c(c1C#N)CC(C)(C)OC2,inactive
14,CCOC(=O)c1sc(NC(=O)c2ccccc2C(=O)O)c(C(=O)OCC)c1C,"inconclusive: 5.01 µM [inhibitor, full curve, poor fit]"
15,CC(=O)OCc1ccccc1Sc1ccccc1C(=O)NCc1ccccc1,"inconclusive: 5.62 µM [inhibitor, partial curve, poor fit]"
16,O=C(Nc1ccc2[nH]ccc2c1)c1cccs1,inactive
17,CCOc1ccc(CCNc2ncnc3onc(C)c23)cc1OCC,"inconclusive: 8.91 µM [inhibitor, partial curve]"
18,COc1ccc(NC(=O)COC(=O)c2ccc3c(c2)OCCO3)cc1,"inconclusive: 0.126 µM [inhibitor, full curve, poor fit]"
19,Cc1ccc(S(=O)(=O)N2[C@@H](c3ccc(Cl)c(Cl)c3)C(C(=O)O)=C[C@H]2C(C)(C)C)cc1,"inconclusive: 44.7 µM [inhibitor, partial curve, poor fit]"
20,CCC(=O)Nc1sc(C(=O)OC)c(C)c1C(=O)OC,inactive
21,C=C1C[C@H]2[C@@H]3C=C(C)C4=CC(=O)CC[C@]4(C)[C@H]3CC[C@]2(C)[C@@]1(OC(C)=O)C(C)=O,"inconclusive: 100 µM [inhibitor, partial curve, poor fit]"
22,C/C(=N\Nc1cc(-c2ccccc2)nc(-c2ccc(Br)cc2)n1)c1cccc(N)c1,inactive
23,COCCC(=O)N1CCC(Oc2ccc(C(=O)N3CCCC(OC)C3)cc2)CC1 (configuration not stated),inactive

row,SMILES,Potency
1,COc1cccc(NC(=O)CSC2=Nc3ccccc3C3=NC(CCC(=O)NC4CCCCC4)C(=O)N23)c1 (configuration not stated),"inconclusive: 39.8 µM [inhibitor, partial curve, poor fit]"
2,COc1cc(/C=C2\SC(=Nc3ccccc3OC)NC2=O)ccc1O,inactive
3,O=C1/C(=C\c2ccc(Br)cc2)SC(=S)N1NS(=O)(=O)c1ccccc1,inactive
4,O=C(O)CN1C(=O)/C(=C\c2ccccc2OCc2ccc(Cl)cc2Cl)SC1=S,"inconclusive: 44.7 µM [inhibitor, partial curve, poor fit]"
5,Nc1ccc(Oc2ccc(N)c([N+](=O)[O-])c2)cc1[N+](=O)[O-],"inconclusive: 5.01 µM [inhibitor, partial curve]"
6,Nc1scc2c(C(=O)N/N=C/c3ccc(Cl)cc3)nn(-c3ccccc3)c(=O)c12,"inconclusive: 31.6 µM [inhibitor, partial curve]"
7,Cn1c(=O)n(C)c2cc(NS(=O)(=O)c3ccc(Cl)cc3)c(NCc3ccccc3)cc21,"inconclusive: 1 µM [inhibitor, full curve, poor fit]"
8,Cc1cc2ccccn2c1C(=O)c1ccccc1F,inactive
9,COC(=O)c1c(-c2cccc(OC)c2)csc1N,inactive
10,NS(=O)(=O)c1ccc(NCc2ccccc2OCc2ccc(F)cc2)cc1,inactive
11,CCC(CC)C(=O)Nc1cccc(-c2cn3cccnc3n2)c1,"inconclusive: 0.355 µM [inhibitor, full curve]"
12,COc1cccc(OCCn2c(-c3ccc(Cl)cc3)nc3ccccc3c2=O)c1,"inconclusive: 6.31 µM [inhibitor, full curve, poor fit]"
13,COc1cccc(Cn2c(=O)n(-c3cc(C)cc(C)c3)c(=O)c3oc4ccccc4c32)c1,inactive
14,Cc1cc(C(=O)N2CCc3ccccc32)ccc1[N+](=O)[O-],"inconclusive: 0.251 µM [inhibitor, full curve, poor fit]"
15,CCCCN1CC[C@H]2C=CC[C@@H](C(=O)Nc3nccs3)[C@H]2C1=O,"inconclusive: 0.251 µM [inhibitor, full curve, poor fit]"
16,CC1=C(C(=O)Nc2cccc(F)c2)C2(CCCCCC2)OC1=O,"inconclusive: 5.62 µM [inhibitor, single point]"
17,COc1cc(OC)c(NC(=O)Cn2c(=O)nc(-c3ccccc3)c3ccccc32)cc1Cl,"inconclusive: 44.7 µM [inhibitor, partial curve]"
18,Cc1ccc(N2CC(C(=O)NCCS(=O)(=O)N3CCN(c4ccc(F)cc4)CC3)CC2=O)cc1 (configuration not stated),"inconclusive: 0.251 µM [inhibitor, full curve, poor fit]"
19,Cc1cccc(Nc2n[nH]c(=S)s2)c1C,inactive
20,CN(C)S(=O)(=O)c1cc(NC(=O)CN2CCN(c3ccccc3O)CC2)ccc1Cl,"inconclusive: 0.282 µM [inhibitor, full curve, poor fit]"
21,COc1ccc(CCNC(=O)c2cc(-c3ccc(C)cc3)nc3n[nH]c(-c4ccc(F)cc4)c23)cc1OC,"inconclusive: 1.78 µM [inhibitor, partial curve]"
22,CCc1sc(C(=O)Nc2cccc(-n3cnnn3)c2)cc1C,inactive
23,O=c1c2ccccc2oc2ccc(NCCCn3ccnc3)cc12,"inconclusive: 44.7 µM [inhibitor, partial curve, poor fit]"

row,SMILES,Potency
1,COc1ccc(C(=O)Nc2ccccc2)cc1NC(=O)c1ccc([N+](=O)[O-])cc1,inactive
2,COc1ccc(-c2nc(-c3ccccc3)c(-c3cccs3)[nH]2)cc1OC,"inconclusive: 28.2 µM [inhibitor, single point]"
3,CC1Cc2ccccc2N1C(=O)COC(=O)c1ccccc1NCCO (configuration not stated),"inconclusive: 12.6 µM [inhibitor, partial curve, poor fit]"
4,CCOc1ccc2nc(N/C(N)=N/C(=S)Nc3cccc(C)c3)nc(C)c2c1,inactive
5,Cc1ccccc1Nc1nnc(SCC(=O)Nc2ccccc2[N+](=O)[O-])s1,"inconclusive: 22.4 µM [inhibitor, partial curve]"
6,CCc1ccccc1NC(=O)c1nnn(CC(=O)Nc2c(C)cc(C)cc2C)c1N,"inconclusive: 3.55 µM [inhibitor, full curve]"
7,COc1ccc(C(=S)N2CCN(c3ccccc3C)CC2)cc1OC,"inconclusive: 8.91 µM [inhibitor, full curve]"
8,CCN(CC)CC(=O)Nc1ccc(-c2ccc(NC(=O)CN(CC)CC)c(OC)c2)cc1OC,"inconclusive: 39.8 µM [inhibitor, single point]"
9,COc1ccc(/C=C/C(=O)c2ccccn2)cc1,"inconclusive: 89.1 µM [inhibitor, partial curve, poor fit]"
10,CC(C)(C)OC(=O)N1CCC(CC2CC(c3cccc(Br)c3)=NO2)(C(=O)NCC2CCCCC2)CC1 (configuration not stated),"inconclusive: 0.251 µM [inhibitor, full curve, poor fit]"
11,FC(F)(F)c1ccccc1NC(=S)Nn1cnnc1,inactive
12,O=C1CC(c2ccccc2)CC(=O)C1CS(=O)(=O)c1ccccc1 (configuration not stated),inactive
13,CN1CCN(C(c2cccc(C(F)(F)F)c2)c2nnnn2Cc2ccccc2)CC1 (configuration not stated),inactive
14,COc1cccc(C(C(=O)NC2CCCCC2)N(C(=O)CNC(=O)c2ccco2)c2cccnc2)c1 (configuration not stated),inactive
15,N#C/C(=C\C=C\c1ccccc1)c1nc(-c2ccc3c(c2)OCO3)cs1,"inconclusive: 2.82 µM [inhibitor, full curve, poor fit]"
16,Cc1cccc(CNCc2ccccc2)c1,inactive
17,COC(=O)Nc1ccc2c(c1)N(C(=O)CCCl)c1ccccc1S2,"inconclusive: 17.8 µM [inhibitor, partial curve]"
18,Cc1cc2nc3c(=O)n(Cc4ccccc4)c(=O)[nH]c3nc2cc1N,active: 25.1 µM
19,COCCNC(=O)C(c1ccc(Cl)cc1)N(C(=O)Cn1nnc2ccccc21)c1cccnc1 (configuration not stated),"inconclusive: 7.08 µM [inhibitor, single point]"
20,CC(=O)c1c(C)[nH]c(C(=O)COC(=O)c2ccc(C)s2)c1C,inactive
21,CC(C)NC(=O)CSc1nnc(-c2ccncc2)n1-c1ccccc1,"inconclusive: 5.62 µM [inhibitor, partial curve, poor fit]"

# 17 entries out of the list, arranged by length of the SMILES, rising.
row,SMILES,Potency
19,Cc1cccc(Nc2n[nH]c(=S)s2)c1C,inactive
8,Cc1cc2ccccn2c1C(=O)c1ccccc1F,inactive
16,O=C(Nc1ccc2[nH]ccc2c1)c1cccs1,inactive
11,FC(F)(F)c1ccccc1NC(=S)Nn1cnnc1,inactive
17,CCOc1ccc(CCNc2ncnc3onc(C)c23)cc1OCC,"inconclusive: 8.91 µM [inhibitor, partial curve]"
11,CC(C)(C)c1ccc(OCCNC(=S)Nc2ccccc2)cc1,inactive
11,CCC(CC)C(=O)Nc1cccc(-c2cn3cccnc3n2)c1,"inconclusive: 0.355 µM [inhibitor, full curve]"
3,CC1Cc2ccccc2N1C(=O)COC(=O)c1ccccc1NCCO (configuration not stated),"inconclusive: 12.6 µM [inhibitor, partial curve, poor fit]"
1,CCc1ccc(/C=C/C(=O)c2cc(Br)ccc(=O)c2O)cc1,"inconclusive: 25.1 µM [inhibitor, partial curve]"
12,COc1cccc(OCCn2c(-c3ccc(Cl)cc3)nc3ccccc3c2=O)c1,"inconclusive: 6.31 µM [inhibitor, full curve, poor fit]"
15,N#C/C(=C\C=C\c1ccccc1)c1nc(-c2ccc3c(c2)OCO3)cs1,"inconclusive: 2.82 µM [inhibitor, full curve, poor fit]"
14,CCOC(=O)c1sc(NC(=O)c2ccccc2C(=O)O)c(C(=O)OCC)c1C,"inconclusive: 5.01 µM [inhibitor, full curve, poor fit]"
15,CCCCN1CC[C@H]2C=CC[C@@H](C(=O)Nc3nccs3)[C@H]2C1=O,"inconclusive: 0.251 µM [inhibitor, full curve, poor fit]"
4,O=C(O)CN1C(=O)/C(=C\c2ccccc2OCc2ccc(Cl)cc2Cl)SC1=S,"inconclusive: 44.7 µM [inhibitor, partial curve, poor fit]"
19,COCCNC(=O)C(c1ccc(Cl)cc1)N(C(=O)Cn1nnc2ccccc21)c1cccnc1 (configuration not stated),"inconclusive: 7.08 µM [inhibitor, single point]"
4,CCCS(=O)(=O)c1ncc(Cl)c(C(=O)Nc2scc(-c3ccccc3)c2C(=O)OCC)n1,"inconclusive: 44.7 µM [inhibitor, partial curve]"
14,COc1cccc(C(C(=O)NC2CCCCC2)N(C(=O)CNC(=O)c2ccco2)c2cccnc2)c1 (configuration not stated),inactive
